Measured values published in paper doi:10.1101/2024.05.31.596839.
Results are given in words; binding and its absence hold for the method and conditions named.

Key:
Krimper (Drosophila) = biological target: T1, Krimper (Drosophila) (UniProt A1ZAC4); experiment: ReLo
T1 sequence: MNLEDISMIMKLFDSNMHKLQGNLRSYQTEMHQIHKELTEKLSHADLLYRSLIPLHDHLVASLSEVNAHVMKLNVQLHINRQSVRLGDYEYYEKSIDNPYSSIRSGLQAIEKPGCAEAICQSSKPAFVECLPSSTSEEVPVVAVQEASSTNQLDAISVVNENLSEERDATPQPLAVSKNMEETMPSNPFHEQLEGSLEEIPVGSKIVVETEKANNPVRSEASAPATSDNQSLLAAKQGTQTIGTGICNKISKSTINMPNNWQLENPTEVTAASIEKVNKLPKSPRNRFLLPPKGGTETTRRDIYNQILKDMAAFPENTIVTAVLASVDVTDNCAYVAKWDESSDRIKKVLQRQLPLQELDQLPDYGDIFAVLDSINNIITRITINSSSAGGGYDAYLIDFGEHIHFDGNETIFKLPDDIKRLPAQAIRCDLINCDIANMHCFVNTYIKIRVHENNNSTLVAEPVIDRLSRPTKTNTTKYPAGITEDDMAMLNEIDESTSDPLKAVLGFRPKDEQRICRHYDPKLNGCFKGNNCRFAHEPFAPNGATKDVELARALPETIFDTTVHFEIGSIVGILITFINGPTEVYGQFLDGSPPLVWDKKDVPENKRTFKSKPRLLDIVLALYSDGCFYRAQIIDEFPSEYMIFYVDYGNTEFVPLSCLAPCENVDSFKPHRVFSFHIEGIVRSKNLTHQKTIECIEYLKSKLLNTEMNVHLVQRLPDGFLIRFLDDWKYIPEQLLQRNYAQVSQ

Aubergine (Drosophila) = biological target: T2, Aubergine (Drosophila) (UniProt O76922); experiment: ReLo
T2 sequence: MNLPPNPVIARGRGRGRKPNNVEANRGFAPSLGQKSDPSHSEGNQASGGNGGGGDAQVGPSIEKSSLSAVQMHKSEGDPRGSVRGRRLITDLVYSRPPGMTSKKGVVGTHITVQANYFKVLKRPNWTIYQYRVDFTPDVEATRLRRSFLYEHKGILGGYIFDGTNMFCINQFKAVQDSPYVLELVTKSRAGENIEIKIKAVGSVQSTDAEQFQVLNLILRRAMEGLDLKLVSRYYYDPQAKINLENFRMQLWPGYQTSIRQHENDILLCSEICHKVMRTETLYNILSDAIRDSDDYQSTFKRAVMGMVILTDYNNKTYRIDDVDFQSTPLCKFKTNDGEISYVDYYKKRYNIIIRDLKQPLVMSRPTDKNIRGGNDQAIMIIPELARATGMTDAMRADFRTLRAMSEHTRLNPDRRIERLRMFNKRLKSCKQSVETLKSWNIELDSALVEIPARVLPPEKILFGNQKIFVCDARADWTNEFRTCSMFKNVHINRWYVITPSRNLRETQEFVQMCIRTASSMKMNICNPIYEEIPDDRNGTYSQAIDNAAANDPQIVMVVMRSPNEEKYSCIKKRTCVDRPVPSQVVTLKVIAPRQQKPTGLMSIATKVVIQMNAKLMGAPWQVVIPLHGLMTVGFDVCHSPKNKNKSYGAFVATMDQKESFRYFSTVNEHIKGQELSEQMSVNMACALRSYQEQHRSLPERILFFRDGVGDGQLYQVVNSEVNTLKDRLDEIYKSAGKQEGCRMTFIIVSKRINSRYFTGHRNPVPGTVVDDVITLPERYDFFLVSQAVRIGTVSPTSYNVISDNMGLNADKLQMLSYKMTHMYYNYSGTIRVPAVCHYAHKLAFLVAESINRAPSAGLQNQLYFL

B1: Maelstrom (protein, UniProt Q9VNS0 1-459)
chain: MAPKKHSGFMMFVNEWRNRNAEGRRMTLAQAVSHCGTIWEKMNTQQRGPYNSGGKDANVAQRAKRESSNGHGQVDKAQREATESLMDMKRTIERLVLNAKMSHDLENAKFVFVAFNYFTKALTTDVYVPAEFAACEYSLKEGIRSIYSTMIDPGQIIFGQGSDALLHSSTTHDLPLPPNALGEKNMTKLYRNIVDYLSKCQGKGKTLVVFTPAENITMVKSCFRYLECDDDFRDGGEKIQVFDIQYLLFILKKEVMNVADLNDEKINKFATDAFFKKDFFEFTAGIACQYHEDNDRTKYCTQSMVTRWAYTFTDFMCGDLAITVQPGKHIPAQTKPNYLIISSYASSLDHESSFDSFYSLPGSGVKKESQPEACSLSSSRLSVASSSYKPIDHTSFAANLNEVSEFPSLGMRNSSKHHGIAASAQREWNARNLPTHSRLIRKVSDNDFSVNGADGKLKK
Which binding (Krimper (Drosophila)) does the source give for B1 here?
The binding was “no binding”.

And the binding (Aubergine (Drosophila))?
The binding was “no binding”.
